Laboratory results taken from patent publication US10517954B2, “Pegylated carfilzomib compounds” (AMGEN INC., priority 2016, dated 2019).
Some results were stated once for a whole list of compounds, not compound by compound.

Columns and labels:
[1] = test system: Proteasome chymotrypsin-like (CT-L) activity; test: In-vivo CT-L activity in blood after subcutaneous bolus (FIG. 15); conditions: subcutaneous bolus 20 mg/kg, female Balb/c mice
[2] = test system: HT-29 Human Colorectal Adenocarcinoma Xenograph Model; test: Efficacy study in HT-29 xenograph model (FIG. 5, FIG. 6, Table 6); format: in vivo, SCID Beige Mice; conditions: Example 13 200 mpk, or 150 rising to 250 mpk after 3 week; CFZ-captisol 5 mpk; intravenous
From the text: Female Beige Severe Combined Immune Deficiency (SCID) mice (60 plus spares) were purchased from Harlan Laboratories (Livermore, Calif.) as 6- to 7-week-old mice. Following arrival, animals were weighed using an electronic balance (Ohaus SCOUT® PRO, Parsippany, N.J.), given a clinical examination to ensure that the animals were in good condition, and housed 5 per cage (prior to dosing). The animals were maintained in a HEPA-filtered environment in a Micro-VENT full-ventilation rodent housing system (Allentown Caging Equipment Co., Allentown, N.J.) providing at least 10 room air changes per hour Animal room controls were set to maintain temperature and relative humidity at 20° C.±1° C. and 50%±20%, respectively. Housing rooms were on a 12:12 light/dark cycle. Cages were autoclaved, and animals were bedded on SaniChip irradiated bedding 7990.BG (Harlan Teklad; Hayward, Calif.). Water was autoclaved and supplied ad libitum to each cage via water bottles. Irradiated 2018 Teklad Global 16% Protein Rodent Diet ((Harlan Teklad) supplied ad libitum to each cage.
Example 13 was prepared as generally described above. The carfilzomib comparator compound was prepared as CFZ-captisol (at 1 mg/mL). A powder sample of example 13 was diluted to 30 mg/ml (Group 3) or 50 mg/ml (Group 3 beginning fourth dose) or 40 mg/ml (Group 4) in 10% ETOH/saline. […]

Substance | CT-L inhibitory activity over the duration of 96 hrs out [1] [%] | duration of nearly complete CT-L inhibition in vivo after administration [1] | time from first dose to significant attenuation of tumor growth (compared to vehicle control) [2] [days]
4-(4-Acetoxy-3-((1-PEG2K-1H-1,2,3-triazol-4-yl)methoxy)benzyl)-4-((4S,7S,10S,13S)-10-benzyl-7-isobutyl-15-methyl-13-((R)-2-methyloxirane-2-carbonyl)-2,5,8,11-tetraoxo-4-phenethyl-3,6,9,12-tetraazahexadecyl)morpholin-4-ium mesylate [Example 36] | ≥ 50 | over 48 h | –
4-(4-Acetoxy-3-((1-PEG3K-1H-1,2,3-triazol-4-yl)methoxy)benzyl)-4-((4S,7S,10S,13S)-10-benzyl-7-isobutyl-15-methyl-13-((R)-2-methyloxirane-2-carbonyl)-2,5,8,11-tetraoxo-4-phenethyl-3,6,9,12-tetraazahexadecyl)morpholin-4-ium mesylate [Example 35] | ≥ 50 | over 48 h | –
4-((4S,7S,10S,13S)-10-Benzyl-7-isobutyl-15-methyl-13-((R)-2-methyloxirane-2-carbonyl)-2,5,8,11-tetraoxo-4-phenethyl-3,6,9,12-tetraazahexadecyl)-4-(3-((1-(PEG20K-4-Arm)-1H-1,2,3-triazol-4-yl)methoxy)-4-(pivaloyloxy)benzyl)morpholin-4-ium formate [Example 13] | – | – | ≤ 19
